{"source": "the supplement of paper PMC4604168 (melanoma cell lines)", "note": "Some of the results follow. Repeats are few or missing, and single values can be far off.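 Imaging used 1,536-well plates; nuclei positive for cleaved PARP by antibody were divided by total DNA-stained nuclei to yield the apoptosis fraction. Doses for screening kept most cells viable, and cell lines differ markedly in resting and induced cleaved-PARP levels.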"}
{"system": "IPC-298", "test": "cleaved PARP positive nuclei fraction relative to DMSO control; melanoma cells; higher = more apoptosis", "conditions": "library dose: low library concentration; 72 h", "units": {"cleaved PARP positive nuclei fraction": "%"}}
{"smiles": "Cn1cnc2c(F)c(Nc3ccc(Br)cc3Cl)c(C(=O)NOCCO)cc21", "note": "[selumetinib] + NCC(=O)Nc1ccc(-n2nc(C(F)(F)F)cc2-c2ccc3c(ccc4ccccc43)c2)cc1 [OSU03012] (first compound 0.015 µM, partner dose 1 µM)", "cleaved PARP positive nuclei fraction": 119}
{"smiles": "CC1(C)CCC(c2ccc(Cl)cc2)=C(CN2CCN(c3ccc(C(=O)NS(=O)(=O)c4ccc(N[C@H](CCN5CCOCC5)CSc5ccccc5)c(S(=O)(=O)C(F)(F)F)c4)cc3)CC2)C1", "note": "+ CC1(C)NC(=O)N(c2ccc([N+](=O)[O-])c(C(F)(F)F)c2)C1=O [nilutamide] (first compound 0.4 µM, partner dose 1 µM)", "cleaved PARP positive nuclei fraction": 194}
{"smiles": "CC1(C)CCC(c2ccc(Cl)cc2)=C(CN2CCN(c3ccc(C(=O)NS(=O)(=O)c4ccc(N[C@H](CCN5CCOCC5)CSc5ccccc5)c(S(=O)(=O)C(F)(F)F)c4)cc3)CC2)C1", "note": "+ COc1cc(Nc2ncc(F)c(Nc3ccc4c(n3)NC(=O)C(C)(C)O4)n2)cc(OC)c1OC [Tamatinib] (first compound 0.4 µM, partner dose 0.4 µM)", "cleaved PARP positive nuclei fraction": 359}
{"smiles": "CCCCCCCCc1ccc(CCC(N)(CO)CO)cc1", "note": "[fingolimod] + OCCn1cc(-c2cnc3nnn(Cc4ccc5ncccc5c4)c3n2)cn1 [PF04217903] (first compound 2 µM, partner dose 1 µM)", "cleaved PARP positive nuclei fraction": 59.8}
{"smiles": "C[C@]1(O)C[C@@H](c2nc(-c3ccc4ccc(-c5ccccc5)nc4c3)c3c(N)nccn32)C1", "note": "+ COc1cc(Nc2ncc(F)c(Nc3ccc4c(n3)NC(=O)C(C)(C)O4)n2)cc(OC)c1OC [Tamatinib] (first compound 0.4 µM, partner dose 0.4 µM)", "cleaved PARP positive nuclei fraction": 452}
{"smiles": "CCN(CC)CCNC(=O)c1c(C)[nH]c(/C=C2\\C(=O)Nc3ccc(F)cc32)c1C", "note": "[sunitinib] + O=C(Nc1cccc(Cl)c1)Nc1ncc(CCNc2ncnc3ccsc23)s1 [SNS314] (first compound 0.4 µM, partner dose 0.0008 µM)", "cleaved PARP positive nuclei fraction": 193}
{"smiles": "NC1(c2ccc(-c3nc4ccn5c(=O)[nH]nc5c4cc3-c3ccccc3)cc2)CCC1", "note": "+ O=C(Nc1cccc(Cl)c1)Nc1ncc(CCNc2ncnc3ccsc23)s1 [SNS314] (first compound 0.4 µM, partner dose 0.0008 µM)", "cleaved PARP positive nuclei fraction": 97.6}
{"smiles": "C[C@@H](N)c1ccc(C(=O)Nc2ccnc3[nH]ccc23)cc1", "note": "+ C[C@@H]1CCN(C(=O)CC#N)C[C@@H]1N(C)c1ncnc2[nH]ccc12 [CP690550] (first compound 0.4 µM, partner dose 1 µM)", "cleaved PARP positive nuclei fraction": 42.9}
{"smiles": "CN(c1ncccc1CNc1nc(Nc2ccc3c(c2)CC(=O)N3)ncc1C(F)(F)F)S(C)(=O)=O", "note": "+ NC(=O)Nc1cc(-c2cccc(F)c2)sc1C(=O)N[C@H]1CCCNC1 [AZD7762] (first compound 0.08 µM, partner dose 0.02 µM)", "cleaved PARP positive nuclei fraction": 222}
{"smiles": "C[C@@H](N)c1ccc(C(=O)Nc2ccnc3[nH]ccc23)cc1", "note": "+ Cc1cc(N2CCOCC2)cc2[nH]c(-c3c(NC[C@@H](O)c4cccc(Cl)c4)cc[nH]c3=O)nc12 [BMS536924] (first compound 0.4 µM, partner dose 0.2 µM)", "cleaved PARP positive nuclei fraction": 252}
{"smiles": "NC1(c2ccc(-c3nc4ccn5c(=O)[nH]nc5c4cc3-c3ccccc3)cc2)CCC1", "note": "+ CC(C)(C)c1cnc(CSc2cnc(NC(=O)C3CCNCC3)s2)o1 [SNS-032] (first compound 0.4 µM, partner dose 0.01 µM)", "cleaved PARP positive nuclei fraction": 133}
{"smiles": "C[C@]1(O)C[C@@H](c2nc(-c3ccc4ccc(-c5ccccc5)nc4c3)c3c(N)nccn32)C1", "note": "+ NC(=O)Nc1cc(-c2cccc(F)c2)sc1C(=O)N[C@H]1CCCNC1 [AZD7762] (first compound 0.4 µM, partner dose 0.02 µM)", "cleaved PARP positive nuclei fraction": 90.2}
{"smiles": "CCN(CC)CCNC(=O)c1c(C)[nH]c(/C=C2\\C(=O)Nc3ccc(F)cc32)c1C", "note": "[sunitinib] + C=CCn1c(=O)c2cnc(Nc3ccc(N4CCN(C)CC4)cc3)nc2n1-c1cccc(C(C)(C)O)n1 [MK1775] (first compound 0.4 µM, partner dose 0.02 µM)", "cleaved PARP positive nuclei fraction": 446}
{"smiles": "COc1ccc(C2=N[C@@H](c3ccc(Cl)cc3)[C@@H](c3ccc(Cl)cc3)N2C(=O)N2CCNC(=O)C2)c(OC(C)C)c1", "note": "[Nutlin-3] + CC1(C)NC(=O)N(c2ccc([N+](=O)[O-])c(C(F)(F)F)c2)C1=O [nilutamide] (first compound 0.1 µM, partner dose 1 µM)", "cleaved PARP positive nuclei fraction": 91.5}
